The values that follow are results of earlier work, collected in PMC10955584, “New Benzimidazole-Triazole Derivatives as Topoisomerase I Inhibitors: Design, Synthesis, Anticancer Screening, and Molecular Modeling Studies” (ACS Omega, 2024).

The series deals with HepG-2, HCT-116, MCF-7,and HeLa cancer cells lines. On the set-up: method as in PMID 36651111. The conditions noted are these: range over four cell lines; read-out: IC50 against HepG-2, HCT-116, MCF-7 and HeLa cancer cell lines; cited from earlier work.

Each structure is given as a SMILES string.

Regarding `COc1cccc2c1C(=O)c1c(O)c3c(c(O)c1C2=O)C[C@@](O)(C(=O)CO)C[C@@H]3O[C@H]1C[C@H](N)[C@H](O)[C@H](C)O1` [doxorubicin, reference compound], the IC50 is 4.17 to 5.57 µM.

Usually IC50 stands for the midpoint of a concentration-inhibition curve.
